Test results: US20080311091A1
These are yes or no findings as the source states them, for the method shown. Some entries that bind do so weakly or less than the wild type.

Amino acid sequences for entries named in this document (tags omitted). Residues count along the entry.
UniProt P13297, residues 7-303: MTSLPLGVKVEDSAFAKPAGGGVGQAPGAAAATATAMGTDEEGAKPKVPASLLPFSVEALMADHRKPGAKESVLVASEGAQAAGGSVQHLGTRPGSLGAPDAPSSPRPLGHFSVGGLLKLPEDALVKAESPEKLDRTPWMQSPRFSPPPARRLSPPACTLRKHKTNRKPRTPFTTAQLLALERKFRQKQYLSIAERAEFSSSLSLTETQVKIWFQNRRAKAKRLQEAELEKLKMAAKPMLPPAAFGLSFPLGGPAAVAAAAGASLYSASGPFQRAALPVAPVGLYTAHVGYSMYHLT
UniProt Q62441: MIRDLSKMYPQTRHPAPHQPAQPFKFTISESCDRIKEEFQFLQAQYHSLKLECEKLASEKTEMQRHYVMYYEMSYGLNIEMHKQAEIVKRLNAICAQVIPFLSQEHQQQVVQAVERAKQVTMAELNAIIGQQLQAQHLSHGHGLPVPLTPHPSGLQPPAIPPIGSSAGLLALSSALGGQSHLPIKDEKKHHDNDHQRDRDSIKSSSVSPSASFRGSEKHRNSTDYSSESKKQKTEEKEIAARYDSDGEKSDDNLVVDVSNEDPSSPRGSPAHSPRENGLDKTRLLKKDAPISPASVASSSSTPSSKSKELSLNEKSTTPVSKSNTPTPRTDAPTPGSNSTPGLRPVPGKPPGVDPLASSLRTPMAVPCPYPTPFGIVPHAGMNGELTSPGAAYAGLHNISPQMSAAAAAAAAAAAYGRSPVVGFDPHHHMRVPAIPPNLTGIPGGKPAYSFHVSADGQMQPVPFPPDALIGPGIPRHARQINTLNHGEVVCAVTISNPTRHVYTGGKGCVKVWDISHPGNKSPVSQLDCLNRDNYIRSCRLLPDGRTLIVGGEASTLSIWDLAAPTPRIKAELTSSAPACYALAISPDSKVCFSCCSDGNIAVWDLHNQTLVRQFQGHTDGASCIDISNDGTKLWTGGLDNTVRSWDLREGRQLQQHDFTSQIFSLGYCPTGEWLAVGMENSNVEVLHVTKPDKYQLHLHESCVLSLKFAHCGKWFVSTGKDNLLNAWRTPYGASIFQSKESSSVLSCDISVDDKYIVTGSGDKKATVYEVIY

Molecular target: 35S-labeled Msx1 (mouse) (UniProt P13297)
Experiment: in vitro interaction assay, GST fusion with 35S-labeled protein

## GST-Grg4 fusion protein (from UniProt Q62441 1-773)
  binding: binds
